Measured values from PubChem BioAssay AID493014 (National Center for Advancing Translational Sciences (NCATS), 2011).
This is one part of the list. The main result of the screen is listed elsewhere. These columns were measured beside it and carry no call. Most of these compounds were active or inconclusive in the main read-out, so they are no random draw. The note in brackets gives the kind of curve behind each potency; many fits are weak.

Experiment: qHTS Assay to Find Inhibitors of Chronic Active B-Cell Receptor Signaling
Conditions: ABC-DLBCL IkBa-CBG/CBR reporter, luminescence ratio (green luciferase fused to IkBa over red control in TMD8 lymphoma cells), 4 h
Procedure, shortened: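 Doxycycline induced both beetle luciferases in TMD8 lymphoma cells; IKK-driven degradation limits the IkappaBalpha-fused green signal, while red luminescence normalises for cell number and nonspecific effects. Compounds tested up to 46 uM, 4 hrs.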

[1] = measured here: CBR red luminescence, cell number

SMILES	AC50 [1]	AC50 (measured here: IkBa-CBG green luminescence)
O=C(Nc1cc(Cl)ccc1N1CCOCC1)c1cc2ccccc2o1	0.501 µM [falling, full curve]	
Cc1ccc(-c2nn(-c3ccccc3)cc2CNCc2ccccc2)cc1	15.8 µM [falling, single point]	
O=C(C[n+]1ccc(Cc2ccccc2)cc1)Nc1ccccc1	11.2 µM [falling, partial curve, poor fit]	
Cn1c(SCC(=O)NCC2CCCO2)nc2c([nH]c3ccccc32)c1=O (stereo unspecified)	1.3 µM [falling, full curve, poor fit]	
CCOC(=O)c1c(C)[nH]c(C(=O)COC(=O)CCC2CCCC2)c1C	29.1 µM [rising, single point]	
O=c1cc(-c2ccccc2)nc2cc(-c3ccc(Br)cc3)[nH]n12	0.398 µM [falling, full curve, poor fit]	
CCOc1ccc2nc(N3CCCC(C(=O)NCCCN4CCCCC4)C3)sc2c1 (stereo unspecified)	12.6 µM [falling, partial curve, poor fit]	
CCNC(=O)c1cc(S(=O)(=O)N(C)C)c(Cl)cc1Cl	35.5 µM [rising, single point]	
CC(=O)c1ccc(N=c2scc(C)n2C(C)C)cc1	35.5 µM [rising, single point]	
CCCN(CC(=O)Nc1ccccc1C)C(=O)c1ccc(-c2ccc(C(C)=O)cc2)o1	29.1 µM [falling, single point]	
CCOC(=O)c1c(-c2ccccc2)oc2ccc(OC(C)C(=O)O)cc12 (stereo unspecified)	2.51 µM [falling, full curve, poor fit]	
COC(=O)c1ccc2c(c1)C(C)(C)C(/C=C/c1ccc(O)cc1)=[N+]2C	16.4 µM [falling, single point]	
COc1ccc(NC(=O)/C(C#N)=C\c2cc(C)n(-c3ccc4c(c3)OCO4)c2C)cc1	5.8 µM [rising, full curve]	5.8 µM [falling, full curve]
CCOC(=O)C1=C(C)C(c2ccccc2O)NC(=O)N1 (stereo unspecified)	0.366 µM [falling, partial curve, poor fit]	
CC(=O)Nc1ccc(/C=N/N2C(=O)NC(C)(c3ccc(OC(F)F)cc3)C2=O)cc1 (stereo unspecified)	14.1 µM [falling, single point]	
CCCN(CC(=O)Nc1cc(Cl)ccc1Cl)C(=O)CN1C(=O)C2CCCCC2C1=O (stereo unspecified)	5.62 µM [falling, single point]	
CC(C)c1cc(C(=O)N/N=C/c2c[nH]c3ccccc23)n[nH]1	15.8 µM [falling, single point]	
COC(=O)C1CCN(C(=O)Cc2ccc(Br)cc2)CC1	0.146 µM [rising, full curve, poor fit]	
COc1ccc(-c2oc(=O)c3cc(OC)c(OC)cc3c2-c2cc(F)cc(OC)c2)cc1	9.2 µM [falling, partial curve]	
Cc1cccc(C(=O)NC(=S)N(C)C2CCCCC2)c1	0.631 µM [rising, partial curve, poor fit]	
CCOc1ccccc1NC(=O)CCNC(=O)c1ccc(Cl)cc1	35.5 µM [rising, single point]	
CCc1cc(C(=O)Cc2nc3ccccc3s2)c(O)cc1OCC(=O)O	2.24 µM [falling, full curve, poor fit]	

An excerpt of these results, bar-delimited.
SMILES | AC50 [1] | AC50 (measured here: IkBa-CBG green luminescence)
CCOC(=O)c1c(-c2ccccc2)oc2ccc(OC(C)C(=O)O)cc12 (stereo unspecified) | 2.51 µM [falling, full curve, poor fit] | 
COC(=O)c1ccc2c(c1)C(C)(C)C(/C=C/c1ccc(O)cc1)=[N+]2C | 16.4 µM [falling, single point] | 
COc1ccc(NC(=O)/C(C#N)=C\c2cc(C)n(-c3ccc4c(c3)OCO4)c2C)cc1 | 5.8 µM [rising, full curve] | 5.8 µM [falling, full curve]
CCOC(=O)C1=C(C)C(c2ccccc2O)NC(=O)N1 (stereo unspecified) | 0.366 µM [falling, partial curve, poor fit] | 

More structures:

SMILES	AC50 [1]	AC50 (measured here: IkBa-CBG green luminescence)
N#C/C(=C(\O)CCl)c1nnc2n1CCCCC2	3.26 µM [rising, single point]	
Cc1c(/C(O)=C2\C(=O)C(=O)N(CCN(C)C)C2c2cccs2)cnn1-c1ccccc1 (stereo unspecified)	3.98 µM [falling, partial curve]	
O=C(NCCOCCNC(=O)OCc1ccccc1)OCc1ccccc1	6.31 µM [falling, single point]	
CCOC(=O)N1CCN(C(=O)C(C)n2nc(C)n3c(cc4sccc43)c2=O)CC1 (stereo unspecified)	2.59 µM [rising, partial curve]	
CC(C)NC(=O)c1cc2c(=O)n3ccccc3nc2s1	3.16 µM [rising, partial curve, poor fit]	
CCc1ccc(OCC(=O)NCCc2ccc3c(c2)OCCO3)cc1	18.4 µM [rising, partial curve, poor fit]	
COc1ccc(CCNC(=O)c2cc(-c3ccccc3OC)on2)cc1OC	2.51 µM [falling, partial curve]	
COc1ccc(-c2csc(-c3ccc(C(=O)O)cc3)n2)cc1	12.6 µM [falling, partial curve]	
Fc1ccccc1COc1ccc2ccccc2c1CNc1nn[nH]n1	10 µM [rising, partial curve]	
Cc1cc(Cn2nc(-c3ccccc3)cc2C(=O)NCc2cccc(C(F)(F)F)c2)on1	29.1 µM [falling, single point]	
Cc1ccsc1C1C=C(c2cccc(Br)c2)Nc2ncnn21 (stereo unspecified)	35.5 µM [falling, single point]	
COC(=O)c1c(N)sc(Cc2ccccc2)c1C	11.2 µM [rising, partial curve, poor fit]	
COc1cccc(-c2csc(N3CCN(C(=O)Nc4ccc(Cl)cc4)CC3)n2)c1	0.112 µM [rising, full curve, poor fit]	
O=C(OCC(=O)c1cccs1)c1ccccc1	35.5 µM [falling, single point]	
C=CCNC(=O)c1ccc2c3n(nc2c1)-c1ccccc1CO3	11.2 µM [falling, partial curve, poor fit]	
Cc1ccc(-c2nc3n(n2)Cc2ccccc2-3)cc1	18.4 µM [falling, partial curve]	
Nc1nc(N)c(N=Nc2ccc(Cl)cc2)c(=O)[nH]1	35.5 µM [falling, single point]	
O=C(Cc1c[nH]c2ccccc12)OCC(=O)c1ccccc1	15.8 µM [falling, partial curve]	
CC(C)C(OC(=O)Cn1nnc2ccccc21)C(=O)NC1CCCC1 (stereo unspecified)	35.5 µM [falling, single point]	
CC1=C(C(=O)N(C)C)C(c2ccc(N3CCOCC3)cc2)NC(=O)N1 (stereo unspecified)	11.2 µM [falling, partial curve, poor fit]	
O=C(Nc1c(-c2ccccc2)nc2ccccn12)c1ccccc1F	6.31 µM [rising, single point]	
COc1cc2c(cc1OC)C(c1cccc(F)c1)CC(=O)N2 (stereo unspecified)	0.562 µM [rising, full curve, poor fit]	

SMILES	AC50 [1]	AC50 (measured here: IkBa-CBG green luminescence)
C=CCn1c(SCC(=O)Nc2cc(C)on2)nnc1C1COc2ccccc2O1 (stereo unspecified)	35.5 µM [falling, single point]	
COc1ccc(C2C=C(c3ccccc3)Nc3ncnn32)cc1 (stereo unspecified)	29.1 µM [falling, single point]	
Cc1ccccc1C(=O)NNc1ccc(-c2csnn2)cc1	22.4 µM [falling, partial curve, poor fit]	
O=C(Cn1c(=O)oc2ccccc21)N1CCN(c2ccccc2)CC1	25.9 µM [falling, single point]	
COc1cc(OC)cc(-c2nc3ccccc3c(=O)n2OC(=O)c2ccc(C)c(C)c2)c1	8.2 µM [falling, partial curve]	
CC(=O)Oc1ccc2ccccc2c1C(NC(=O)Cc1ccccc1)c1ccc(Cl)cc1 (stereo unspecified)	35.5 µM [falling, single point]	
CCCCCOc1ccc(C(=O)Nc2ccc(S(=O)(=O)Nc3cc(C)on3)cc2)cc1	3.55 µM [falling, partial curve, poor fit]	
C=C1CCC[C@]2(C)C[C@H]3OC(=O)C(CNC(C)(CO)CO)[C@H]3CC12 (stereo partly specified)	10 µM [falling, partial curve, poor fit]	
CN(Cc1c(C(=O)N/N=C/c2ccc(O)cc2)nnn1-c1nonc1N)c1ccccc1	25.1 µM [falling, single point]	
CC(Nc1nc(-c2ccccc2F)nc2ccccc12)c1ccccc1 (stereo unspecified)	5.62 µM [rising, single point]	
Cc1ccc2c(=O)c(C(=O)NCc3cccs3)c[nH]c2c1	16.4 µM [falling, single point]	
NS(=O)(=O)c1ccc(Nc2nc(-c3ccccc3)cs2)cc1	0.92 µM [falling, full curve, poor fit]	
Cc1conc1NC(c1cccs1)c1ccc2cccnc2c1O (stereo unspecified)	3.16 µM [falling, full curve]	
COCCNc1cc(C)nc2cc(-c3ccc(C)cc3)nn12	4.47 µM [rising, partial curve, poor fit]	
Cc1cccc(C(=O)Nc2nnc(-c3ccco3)o2)c1	18.4 µM [falling, single point]	
C=CCN1C(=O)C2(C(C(=O)c3ccc(C)o3)=C(O)C(=O)N2CCCN2CCOCC2)c2ccccc21 (stereo unspecified)	11.2 µM [rising, partial curve, poor fit]	
CCOc1ccc(S(=O)(=O)N2CCOCC2)cc1NC(=O)Cc1c(F)cccc1Cl	29.1 µM [rising, single point]	
COc1ccc(CCNC(=O)Cn2c([N+](=O)[O-])cnc2C)cc1OC	12.6 µM [rising, single point]	
CC(C)(C)c1ccc(C(=O)N2CCCCCC2=O)cc1	4.61 µM [falling, partial curve]	
O=C(NC1CCCCC1)C(c1cccs1)N(CC1CCCO1)C(=O)c1csnn1 (stereo unspecified)	2.82 µM [falling, partial curve, poor fit]	
COc1ccc(OC)c(NC(=O)Nc2cccc(Cn3cccn3)c2)c1	29.1 µM [falling, single point]	
